Assay: peptide synthesis
Conditions: late stage modification step, hydrochloride

Row | Substance | step yield | also measured
1 | N^15 -tert-butyloxycarbonyl deglucoteicoplanin | 92% | 
2 | O^56 -(4-aminobutyl)deglucoteicoplanin methyl ester |  | final HPLC purity (HPLC): >95% HPLC titer
3 | O^56 -[2-(1-pyrrolidinyl)ethyl]deglucoteicoplanin methyl ester dihydrochloride |  | purity (crude or final not stated) (HPLC): HPLC purity 85%
4 | O^56 -(1-carboxy-3-hydroxypropyl)deglucoteicoplanin methyl ester hydrochloride | about 25% | 

From patent US5185320A (Gruppo Lepetit S.p.A., priority 1989, dated 1993)
